From the supplement of paper PMC4604168 (melanoma cell lines)
This is one part of the list. Many values rest on one well or one pass, so single values are uncertain.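 The apoptosis fraction was the count of cleaved-PARP antibody-stained nuclei relative to all DNA-stained nuclei, imaged in 1,536-well plates. Screening doses were set so most cells survived, and baseline and induced cleaved-PARP levels vary greatly across cell lines.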

Test system: C32
Assay: cleaved PARP positive nuclei fraction relative to DMSO control; melanoma cells; higher = more apoptosis
Details: library dose: low library concentration; 72 h

Row | Structure (SMILES) | cleaved PARP positive nuclei fraction [%]
1 | COc1cc([C@@H]2c3cc4c(cc3[C@@H](O[C@@H]3O[C@@H]5CO[C@@H](C)O[C@H]5[C@H](O)[C@H]3O)[C@H]3COC(=O)[C@H]23)OCO4)cc(OC)c1O [etoposide] + CC(C)CCN1c2nc(Nc3cc(F)c(O)c(F)c3)ncc2N(C)C(=O)C1C [BID1870] (first compound 0.02 µM, partner dose 0.2 µM) | 39.7
2 | Cc1ccc(Nc2nccc(N(C)c3ccc4c(C)n(C)nc4c3)n2)cc1S(N)(=O)=O [Pazopanib] + CCN(CC)CCCCNc1ncc2cc(-c3cc(OC)cc(OC)c3)c(NC(=O)NC(C)(C)C)nc2n1 [PD173074] (first compound 0.4 µM, partner dose 0.1 µM) | 145
3 | Cc1cn(-c2cc(NC(=O)c3ccc(C)c(Nc4nccc(-c5cccnc5)n4)c3)cc(C(F)(F)F)c2)cn1 [nilotinib] + COc1ccc2c(c1)CCC1C2CCC2(C)C(NCCCCCCN3C(=O)C=CC3=O)CCC12 [U73122] (first compound 0.2 µM, partner dose 0.4 µM) | 271
4 | N#CC[C@H](C1CCCC1)n1cc(-c2ncnc3[nH]ccc23)cn1 [ruxolitinib] + COc1ccc2c(c1)CCC1C2CCC2(C)C(NCCCCCCN3C(=O)C=CC3=O)CCC12 [U73122] (first compound 1 µM, partner dose 0.4 µM) | 35.2
5 | CCCCCCCCCCCCCCCCCCOP(=O)([O-])OC1CC[N+](C)(C)CC1 [Perifosine] + O=C(O)C(=O)Nc1sc2c(c1C(=O)O)CCNC2 [TCS401] (first compound 0.4 µM, partner dose 1.66667 µM) | 34
6 | Cc1cn(-c2cc(NC(=O)c3ccc(C)c(Nc4nccc(-c5cccnc5)n4)c3)cc(C(F)(F)F)c2)cn1 [nilotinib] + COc1cc(N2CCC(N3CCN(C)CC3)CC2)ccc1Nc1ncc(Cl)c(Nc2ccccc2S(=O)(=O)C(C)C)n1 [NVP-TAE684] (first compound 0.2 µM, partner dose 0.08 µM) | 48.8
7 | Cc1ccc(Nc2nccc(N(C)c3ccc4c(C)n(C)nc4c3)n2)cc1S(N)(=O)=O [Pazopanib] + O=C(Nc1ccccc1)c1cc([N+](=O)[O-])ccc1Cl [GW9662] (first compound 0.4 µM, partner dose 2 µM) | 144
8 | O=C(Nc1cc(C(F)(F)F)cc(C(F)(F)F)c1)c1cc(Cl)ccc1O + O=C(O)C(=O)Nc1sc2c(c1C(=O)O)CCNC2 [TCS401] (first compound 0.016 µM, partner dose 1.66667 µM) | 74.4

Test system: CBRC008 (line from a melanoma biopsy)
Assay: as above
Details: library dose: low library concentration; 72 h

Row | Structure (SMILES) | cleaved PARP positive nuclei fraction [%]
9 | Cc1cc(Nc2cc(N3CCN(C)CC3)nc(Sc3ccc(NC(=O)C4CC4)cc3)n2)n[nH]1 [Tozasertib] + N#Cc1c(O)c2c(-c3ccc(-c4ccccc4O)cc3)csc2[nH]c1=O [A769662] (first compound 0.006 µM, partner dose 2 µM) | 216
10 | O=C(Nc1cc(C(F)(F)F)cc(C(F)(F)F)c1)c1cc(Cl)ccc1O + COc1ccc(COc2ccc(Cc3cnc(N)nc3N)cc2OC)cc1 [GW2580] (first compound 0.016 µM, partner dose 1 µM) | 102
11 | O=C(/C=C/c1cccnc1)NCCCCC1CCN(C(=O)c2ccccc2)CC1 + COc1cc(N2CCC(N3CCN(C)CC3)CC2)ccc1Nc1ncc(Cl)c(Nc2ccccc2S(=O)(=O)C(C)C)n1 [NVP-TAE684] (first compound 0.01 µM, partner dose 0.08 µM) | 3440
12 | N#CC[C@H](C1CCCC1)n1cc(-c2ncnc3[nH]ccc23)cn1 [ruxolitinib] + Cn1cc(/C=C2\C(=O)Nc3cccnc32)c2ccccc21 [GW441756] (first compound 1 µM, partner dose 0.4 µM) | 212
13 | CCCCCCCCCCCCCCCCCCOP(=O)([O-])OC1CC[N+](C)(C)CC1 [Perifosine] + Oc1nc(-c2ccc(C(F)(F)F)cc2)nc2c1CSCC2 [XAV939] (first compound 0.4 µM, partner dose 2 µM) | 155
14 | O=C(/C=C/c1cccnc1)NCCCCC1CCN(C(=O)c2ccccc2)CC1 + Oc1nc(-c2ccc(C(F)(F)F)cc2)nc2c1CSCC2 [XAV939] (first compound 0.01 µM, partner dose 2 µM) | 286
15 | Cc1ccc(Nc2nccc(N(C)c3ccc4c(C)n(C)nc4c3)n2)cc1S(N)(=O)=O [Pazopanib] + N#Cc1c(O)c2c(-c3ccc(-c4ccccc4O)cc3)csc2[nH]c1=O [A769662] (first compound 0.4 µM, partner dose 2 µM) | 113
16 | N#CC[C@H](C1CCCC1)n1cc(-c2ncnc3[nH]ccc23)cn1 [ruxolitinib] + COc1cc2ncnc(Nc3ccc(Oc4ccccc4)cc3)c2cc1OC [SrcI1] (first compound 1 µM, partner dose 2 µM) | 89.3
17 | O=C(Nc1cc(C(F)(F)F)cc(C(F)(F)F)c1)c1cc(Cl)ccc1O + CCN(CC)CCCCNc1ncc2cc(-c3cc(OC)cc(OC)c3)c(NC(=O)NC(C)(C)C)nc2n1 [PD173074] (first compound 0.016 µM, partner dose 0.1 µM) | 123
18 | CCCCCCCCCCCCCCCCCCOP(=O)([O-])OC1CC[N+](C)(C)CC1 [Perifosine] + COc1ccc2c(c1)CCC1C2CCC2(C)C(NCCCCCCN3C(=O)C=CC3=O)CCC12 [U73122] (first compound 0.4 µM, partner dose 0.4 µM) | 146
19 | O=c1[nH]nc(Sc2ncc([N+](=O)[O-])s2)n1-c1ccc2c(c1)OCCO2 + N#Cc1c(O)c2c(-c3ccc(-c4ccccc4O)cc3)csc2[nH]c1=O [A769662] (first compound 0.2 µM, partner dose 2 µM) | 35.2
20 | O=c1[nH]nc(Sc2ncc([N+](=O)[O-])s2)n1-c1ccc2c(c1)OCCO2 + COc1ccc2c(c1)CCC1C2CCC2(C)C(NCCCCCCN3C(=O)C=CC3=O)CCC12 [U73122] (first compound 0.2 µM, partner dose 0.4 µM) | 54.2
21 | N#CC[C@H](C1CCCC1)n1cc(-c2ncnc3[nH]ccc23)cn1 [ruxolitinib] + O=C(Nc1ccccc1)c1cc([N+](=O)[O-])ccc1Cl [GW9662] (first compound 1 µM, partner dose 2 µM) | 75.7
22 | O=C(/C=C/c1cccnc1)NCCCCC1CCN(C(=O)c2ccccc2)CC1 + O=c1cc(-c2cccc3c2Sc2ccccc2S3)oc(N2CCOCC2)c1 [KU55933] (first compound 0.01 µM, partner dose 1 µM) | 1800
23 | CCCCCCCCCCCCCCCCCCOP(=O)([O-])OC1CC[N+](C)(C)CC1 [Perifosine] + Cc1cc([N+](=O)[O-])ccc1NS(=O)(=O)c1cc(Cl)ccc1Cl [FH535] (first compound 0.4 µM, partner dose 1 µM) | 510
24 | N#CC[C@H](C1CCCC1)n1cc(-c2ncnc3[nH]ccc23)cn1 [ruxolitinib] + O=S(=O)(c1ccccc1)N(CC(F)(F)F)c1ccc(C(O)(C(F)(F)F)C(F)(F)F)cc1 [T0901317] (first compound 1 µM, partner dose 1.4 µM) | 104
25 | Cc1cn(-c2cc(NC(=O)c3ccc(C)c(Nc4nccc(-c5cccnc5)n4)c3)cc(C(F)(F)F)c2)cn1 [nilotinib] + COC(=O)c1sccc1S(=O)(=O)Nc1ccc(Nc2ccccc2)cc1OC [GSK0660] (first compound 0.2 µM, partner dose 1 µM) | 63.3
26 | Cc1ccc(Nc2nccc(N(C)c3ccc4c(C)n(C)nc4c3)n2)cc1S(N)(=O)=O [Pazopanib] + O=C(O)C(=O)Nc1sc2c(c1C(=O)O)CCNC2 [TCS401] (first compound 0.4 µM, partner dose 1.66667 µM) | 207
27 | N#CC[C@H](C1CCCC1)n1cc(-c2ncnc3[nH]ccc23)cn1 [ruxolitinib] + COc1ccc(COc2ccc(Cc3cnc(N)nc3N)cc2OC)cc1 [GW2580] (first compound 1 µM, partner dose 1 µM) | 81.5
28 | Cc1ccc(Nc2nccc(N(C)c3ccc4c(C)n(C)nc4c3)n2)cc1S(N)(=O)=O [Pazopanib] + CCc1ccc(CCOc2ccc(CC3SC(=O)NC3=O)cc2)nc1 [pioglitazone] (first compound 0.4 µM, partner dose 2 µM) | 147
29 | Cc1cc(Nc2cc(N3CCN(C)CC3)nc(Sc3ccc(NC(=O)C4CC4)cc3)n2)n[nH]1 [Tozasertib] + c1cc(-c2cnn3cc(-c4ccc(OCCN5CCCCC5)cc4)cnc23)ccn1 [Dorsomorphin] (first compound 0.006 µM, partner dose 0.4 µM) | 79.3
30 | Cc1ccc(Nc2nccc(N(C)c3ccc4c(C)n(C)nc4c3)n2)cc1S(N)(=O)=O [Pazopanib] + COC(=O)c1sccc1S(=O)(=O)Nc1ccc(Nc2ccccc2)cc1OC [GSK0660] (first compound 0.4 µM, partner dose 1 µM) | 82.1
31 | COc1cc([C@@H]2c3cc4c(cc3[C@@H](O[C@@H]3O[C@@H]5CO[C@@H](C)O[C@H]5[C@H](O)[C@H]3O)[C@H]3COC(=O)[C@H]23)OCO4)cc(OC)c1O [etoposide] + O=S(=O)(c1ccccc1)N(CC(F)(F)F)c1ccc(C(O)(C(F)(F)F)C(F)(F)F)cc1 [T0901317] (first compound 0.02 µM, partner dose 1.4 µM) | 69.5

Reprinted at random: 2 entries already listed.
Row | Structure (SMILES) | cleaved PARP positive nuclei fraction [%]
24 | N#CC[C@H](C1CCCC1)n1cc(-c2ncnc3[nH]ccc23)cn1 [ruxolitinib] + O=S(=O)(c1ccccc1)N(CC(F)(F)F)c1ccc(C(O)(C(F)(F)F)C(F)(F)F)cc1 [T0901317] (first compound 1 µM, partner dose 1.4 µM) | 104
22 | O=C(/C=C/c1cccnc1)NCCCCC1CCN(C(=O)c2ccccc2)CC1 + O=c1cc(-c2cccc3c2Sc2ccccc2S3)oc(N2CCOCC2)c1 [KU55933] (first compound 0.01 µM, partner dose 1 µM) | 1800
